Values from PubChem BioAssay AID1259425 (University of Nebraska Medical Center, 2018)

Test: 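Compare each knockdown with KSR1 silencing using changes in marker transcripts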 (primary screen)
Cell system: HCT116 human colon cancer cells
Reagent: siRNA pool against human genes, 50 nM siRNA
Detection: 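After 50 nM siRNA pool, branched-DNA assay measures six marker transcripts per well, minus blank, normalised to the geometric mean of two housekeeping transcripts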
Scale: BNIP3L mRNA: higher = more BNIP3L transcript after knockdown; NDRG1 mRNA: higher = more NDRG1 transcript after knockdown; BNIP3 mRNA: higher = more BNIP3 transcript after knockdown; ALDOC mRNA: higher = more ALDOC transcript after knockdown; ACSL5 mRNA: higher = more ACSL5 transcript after knockdown
Shown is an unselected part of about 14,000 reagents. No sequences are given here. The record does not give: the time to read-out.

The opening 4 records, ahead of the listing:
| BNIP3L mRNA, set 1 | NDRG1 mRNA, set 1 | BNIP3 mRNA, set 1 | ALDOC mRNA, set 1 | ACSL5 mRNA, set 1 | Gene |
| --- | --- | --- | --- | --- | --- |
| 0.0648 | 0.0494 | 0.25 | 0.0214 | 0.0566 | GRAP2 |
| 0.0842 | 0.149 | 0.287 | 0.0177 | 0.289 | PALLD |
| 0.164 | 0.191 | 0.338 | 0.073 | 0.277 | PYROXD2 |
| 0.162 | 0.154 | 0.264 | 0.0163 | 0.0829 | PROZ |

The list itself, repeating the preview:
| BNIP3L mRNA, set 1 | NDRG1 mRNA, set 1 | BNIP3 mRNA, set 1 | ALDOC mRNA, set 1 | ACSL5 mRNA, set 1 | Gene |
| --- | --- | --- | --- | --- | --- |
| 0.0648 | 0.0494 | 0.25 | 0.0214 | 0.0566 | GRAP2 |
| 0.0842 | 0.149 | 0.287 | 0.0177 | 0.289 | PALLD |
| 0.164 | 0.191 | 0.338 | 0.073 | 0.277 | PYROXD2 |
| 0.162 | 0.154 | 0.264 | 0.0163 | 0.0829 | PROZ |
| 0.095 | 0.159 | 0.299 | 0.0416 | 0.163 | FBXW4P1 |
| 0.13 | 0.447 | 0.289 | 0.015 | 0.177 | MRPL49 |
| 0.207 | 0.0869 | 0.29 | 0.00672 | 0.15 | IFI16 |
| 0.124 | 0.283 | 0.233 | 0.0397 | 0.22 | USP21 |
| 0.111 | 0.386 | 0.206 | 0.0577 | 0.0207 | NCAN |
| 0.0813 | 0.335 | 0.296 | 0.0294 | 0.106 | AKT1S1 |
| 0.0736 | 0.205 | 0.28 | 0.0107 | 0.267 | USH1C |
| 0.0655 | 0.267 | 0.549 | 0.0508 | 0.29 | HHIP |
| 0.102 | 0.291 | 0.344 | 0.0348 | 0.1 | RNF121 |
| 0.223 | 0.0643 | 0.598 | 0.0294 | 0.0449 | FGF12 |
| 0.372 | 0.477 | 0.598 | 0.155 | 0.444 | KLHL8 |
| 0.18 | 0.123 | 0.204 | 0.0579 | 0.371 | ZRANB3 |
| 0.0595 | 0.0996 | 0.208 | 0.0393 | 0.209 | SLC15A3 |
| 0.183 | 0.316 | 0.227 | 0.0331 | 0.161 | AGO2 |
| 0.102 | 0.215 | 0.321 | 0.0442 | 0.16 | FIG4 |
| 0.105 | 0.343 | 0.242 | 0.0323 | 0.25 | EXOC7 |
| 0.0909 | 0.152 | 0.315 | 0.0467 | 0.356 | TXNDC12 |
| 0.0757 | 0.248 | 0.295 | 0.0338 | 0.257 | DNAI2 |
| 0.165 | 0.282 | 0.414 | 0.0211 | 0.215 | FRYL |
| 0.109 | 0.13 | 0.215 | 0.0241 | 0.121 | GNRH2 |
| 0.0879 | 0.706 | 0.392 | 0.0255 | 0.206 | CECR2 |
| 0.0845 | 0.156 | 0.323 | 0.0146 | 0.27 | ELAVL2 |
| 0.318 | 0.388 | 0.53 | 0.0414 | 0.331 | TIMM13 |
| 0.194 | 0.125 | 0.381 | 0.0132 | 0.453 | SHD |
| 0.0681 | 0.183 | 0.291 | 0.041 | 0.149 | STAT5B |
| 0.0856 | 0.361 | 0.301 | 0.0477 | 0.366 | ARPP21 |
| 0.0935 | 0.135 | 0.223 | 0.00871 | 0.0648 | LAMB2 |
| 0.184 | 0.232 | 0.397 | 0.0439 | 0.34 | CPLANE1 |
| 0.126 | 0.103 | 0.786 | 0.044 | 0.129 | FANCL |
| 0.0706 | 0.183 | 0.338 | 0.0243 | 0.13 | NMD3 |
| 0.371 | 0.345 | 0.861 | 0.1 | 0.312 | MINDY4 |
| 0.105 | 0.102 | 0.516 | 0.0177 | 0.159 | PKMYT1 |
| 0.0936 | 0.152 | 0.184 | 0.0175 | 0.203 | LIPC |
| 0.209 | 1.83 | 0.582 | 0.0147 | 0.258 | CTIF |
| 0.0965 | 0.282 | 0.317 | 0.0169 | 0.183 | MRPS30 |
| 0.0608 | 0.0847 | 0.219 | 0.0304 | 0.094 | FKBP14 |
| 0.0937 | 0.345 | 0.374 | 0.0211 | 0.21 | PACS1 |
| 0.141 | 0.204 | 0.324 | 0.0613 | 0.131 | LINC01101 |
| 0.0585 | 0.307 | 0.174 | 0.0639 | 0.181 | TTC17 |
| 0.0862 | 0.372 | 0.249 | 0.0141 | 0.153 | MYOC |
| 0.0999 | 0.226 | 0.241 | 0.0251 | 0.17 | PSPC1 |
| 0.207 | 0.189 | 0.493 | 0.00834 | 0.163 | PCK2 |
| 0.198 | 0.159 | 0.175 | 0.0387 | 0.256 | PIGX |
| 0.144 | 0.122 | 0.37 | 0.0046 | 0.133 | ZNF692 |
| 0.138 | 0.2 | 0.408 | 0.0128 | 0.251 | SAMHD1 |
| 0.085 | 0.198 | 0.29 | 0.0175 | 0.188 | CDC37L1 |
